Measurements as given in article PMC4303762, “Identification of PLXDC1 and PLXDC2 as the transmembrane receptors for the multifunctional factor PEDF” (eLife, 2014).
These are yes or no findings as the source states them, for the method shown. For some of these results: Binding seen in cells or lysates may run through a third protein. Some results given as binding are weak or reduced against the parent protein; the word gives no strength. For some of these results: Tags and fused reporters may be left off the sequences shown.

Chains of the proteins cited; added tags and fusions are not shown. Residues count along the entry.
UniProt Q6UX71, residues 31-529: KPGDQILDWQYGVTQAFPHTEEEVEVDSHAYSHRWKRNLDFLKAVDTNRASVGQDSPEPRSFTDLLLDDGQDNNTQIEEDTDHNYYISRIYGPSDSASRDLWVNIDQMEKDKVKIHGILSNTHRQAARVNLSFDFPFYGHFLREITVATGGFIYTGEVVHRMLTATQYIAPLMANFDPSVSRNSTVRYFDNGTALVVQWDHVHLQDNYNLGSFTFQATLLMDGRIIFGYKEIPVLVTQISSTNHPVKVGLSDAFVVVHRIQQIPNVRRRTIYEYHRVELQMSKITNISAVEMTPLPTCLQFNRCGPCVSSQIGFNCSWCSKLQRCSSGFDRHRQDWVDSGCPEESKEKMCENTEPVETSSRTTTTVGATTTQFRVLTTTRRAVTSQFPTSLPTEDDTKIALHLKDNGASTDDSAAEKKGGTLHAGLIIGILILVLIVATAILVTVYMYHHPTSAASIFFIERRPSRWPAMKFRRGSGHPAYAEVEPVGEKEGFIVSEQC

Columns and labels:
[1] = target: T1, Rim-tagged PLXDC1 (human) (UniProt Q8IUK5); assay: co-IP; cotransfected cells lysed in 1% Triton X-100 in HBSS; Rim-tagged protein purified on anti-Rim antibody beads, 4 hr at 4°C; eluted at pH 2.3; copurified receptors detected by anti-HA or by antibody specific to PLXDC1 or PLXDC2
T1 sequence: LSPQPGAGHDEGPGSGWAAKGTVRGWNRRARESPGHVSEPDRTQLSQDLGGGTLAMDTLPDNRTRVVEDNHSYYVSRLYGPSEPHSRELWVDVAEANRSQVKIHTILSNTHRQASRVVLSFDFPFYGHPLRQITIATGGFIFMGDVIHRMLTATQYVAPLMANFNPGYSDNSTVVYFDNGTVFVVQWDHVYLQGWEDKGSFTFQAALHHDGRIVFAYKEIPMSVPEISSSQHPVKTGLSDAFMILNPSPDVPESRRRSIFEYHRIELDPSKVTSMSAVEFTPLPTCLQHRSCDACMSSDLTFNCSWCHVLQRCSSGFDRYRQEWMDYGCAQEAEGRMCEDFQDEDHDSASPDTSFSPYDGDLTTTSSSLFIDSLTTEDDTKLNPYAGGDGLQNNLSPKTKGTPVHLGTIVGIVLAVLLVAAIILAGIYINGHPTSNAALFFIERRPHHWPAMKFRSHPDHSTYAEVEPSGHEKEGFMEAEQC

[2] = target: Rim-tagged PLXDC2 (human) (UniProt Q6UX71); assay: as above
[3] = target: T2, PLXDC1 (plexin domain containing 1), epitope-tagged, on HEK293 cells (human) (UniProt Q8IUK5); assay: binding of a biotinylated ligand to transfected cells, detected with streptavidin-alkaline phosphatase; biotinylated PEDF (20 nM) added to transfected or control HEK293 cells on a fibronectin-coated dish in HBSS, 10 mM HEPES pH 7.5, 2 mg/ml BSA, room temperature, 1 hour; washed, fixed, streptavidin-AP, NBT/BCIP; only the binder purified
T2 sequence: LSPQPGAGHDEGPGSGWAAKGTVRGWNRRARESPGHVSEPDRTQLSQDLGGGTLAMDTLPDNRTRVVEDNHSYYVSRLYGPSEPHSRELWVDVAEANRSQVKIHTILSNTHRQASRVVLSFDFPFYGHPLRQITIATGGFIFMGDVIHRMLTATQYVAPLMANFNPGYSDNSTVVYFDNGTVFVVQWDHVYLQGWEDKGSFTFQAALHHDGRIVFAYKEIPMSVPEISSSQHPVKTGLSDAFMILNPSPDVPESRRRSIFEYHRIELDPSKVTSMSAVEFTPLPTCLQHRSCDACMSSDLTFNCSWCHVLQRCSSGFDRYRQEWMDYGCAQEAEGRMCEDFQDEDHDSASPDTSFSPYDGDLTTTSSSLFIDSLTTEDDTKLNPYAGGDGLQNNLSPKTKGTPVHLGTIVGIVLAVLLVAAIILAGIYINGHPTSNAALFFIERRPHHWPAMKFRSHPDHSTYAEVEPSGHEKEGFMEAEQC

[4] = target: PLXDC2 (plexin domain containing 2), epitope-tagged, on HEK293 cells (human) (UniProt Q6UX71); assay: as above
[5] = target: T3, PLXDC1 fused to Cyan Fluorescent Protein at the C-terminus (human) (UniProt Q8IUK5); assay: FRET or BRET; as the CFP-YFP FRET in membranes, PEDF added to the membrane suspension at time 0, signal followed over time; only the binder purified
T3 sequence: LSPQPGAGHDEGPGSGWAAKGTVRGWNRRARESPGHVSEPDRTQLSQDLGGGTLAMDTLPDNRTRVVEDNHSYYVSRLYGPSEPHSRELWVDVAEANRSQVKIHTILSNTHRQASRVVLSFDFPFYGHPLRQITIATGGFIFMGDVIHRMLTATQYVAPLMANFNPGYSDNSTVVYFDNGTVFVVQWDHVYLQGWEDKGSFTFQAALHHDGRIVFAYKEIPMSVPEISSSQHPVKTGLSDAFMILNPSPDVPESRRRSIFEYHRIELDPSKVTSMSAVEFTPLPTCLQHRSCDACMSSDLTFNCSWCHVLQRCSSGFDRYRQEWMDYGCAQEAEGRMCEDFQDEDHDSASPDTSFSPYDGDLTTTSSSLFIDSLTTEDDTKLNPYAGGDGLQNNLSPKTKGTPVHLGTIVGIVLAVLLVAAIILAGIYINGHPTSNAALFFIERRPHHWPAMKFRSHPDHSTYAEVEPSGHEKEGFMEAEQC

[6] = target: T4, PLXDC1-C500S fused to CFP (human) (UniProt Q8IUK5); assay: as above
T4 sequence: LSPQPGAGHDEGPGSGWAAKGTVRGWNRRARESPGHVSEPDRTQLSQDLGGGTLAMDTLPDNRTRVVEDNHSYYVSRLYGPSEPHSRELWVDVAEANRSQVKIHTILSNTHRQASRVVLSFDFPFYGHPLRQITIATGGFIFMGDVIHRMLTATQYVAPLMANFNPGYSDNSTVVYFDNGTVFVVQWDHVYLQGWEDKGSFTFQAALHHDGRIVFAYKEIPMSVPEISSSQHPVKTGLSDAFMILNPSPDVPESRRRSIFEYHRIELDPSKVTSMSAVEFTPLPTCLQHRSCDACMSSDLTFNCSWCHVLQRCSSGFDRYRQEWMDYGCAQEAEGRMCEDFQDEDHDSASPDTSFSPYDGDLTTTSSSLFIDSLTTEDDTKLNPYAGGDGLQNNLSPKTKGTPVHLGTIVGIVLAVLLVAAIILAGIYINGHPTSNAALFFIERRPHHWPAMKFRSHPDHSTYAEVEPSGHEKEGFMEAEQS

[7] = target: T5, PLXDC1 in membranes of transfected HEK293 cells (copper phenanthroline crosslinking) (human) (UniProt Q8IUK5); assay: cross-linking; as the copper phenanthroline crosslinking, membranes incubated with PEDF for 3 hr at room temperature before oxidation; only the binder purified
T5 sequence: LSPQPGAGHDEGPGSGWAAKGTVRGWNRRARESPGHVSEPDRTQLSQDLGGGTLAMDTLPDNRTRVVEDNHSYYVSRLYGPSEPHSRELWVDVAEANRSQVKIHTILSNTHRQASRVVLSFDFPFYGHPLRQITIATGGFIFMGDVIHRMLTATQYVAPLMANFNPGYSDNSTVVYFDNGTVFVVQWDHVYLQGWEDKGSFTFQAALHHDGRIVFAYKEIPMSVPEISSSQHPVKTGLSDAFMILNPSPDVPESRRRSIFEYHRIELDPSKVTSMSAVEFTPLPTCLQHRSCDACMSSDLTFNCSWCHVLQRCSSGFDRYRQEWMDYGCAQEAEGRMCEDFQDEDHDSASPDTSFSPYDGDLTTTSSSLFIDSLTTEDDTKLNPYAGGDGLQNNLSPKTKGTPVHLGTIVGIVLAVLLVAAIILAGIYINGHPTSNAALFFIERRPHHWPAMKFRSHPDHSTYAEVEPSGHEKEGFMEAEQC

In the case of “untagged PLXDC2 (copurification) (from UniProt Q6UX71 31-529) (receptor)”, the binding [1] is reported as “no binding”.

With “HA-tagged PLXDC2 (from UniProt Q6UX71 31-529) (receptor)” the binding [2] was “binds”.

B1: biotinylated PEDF (ligand, UniProt P36955 20-418)
chain: QNPASPPEEGSPDPDSTGALVEEEDPFFKVPVNKLAAAVSNFGYDLYRVRSSTSPTTNVLLSPLSVATALSALSLGAEQRTESIIHRALYYDLISSPDIHGTYKELLDTVTAPQKNLKSASRIVFEKKLRIKSSFVAPLEKSYGTRPRVLTGNPRLDLQEINNWVQAQMKGKLARSTKEIPDEISILLLGVAHFKGQWVTKFDSRKTSLEDFYLDEERTVRVPMMSDPKAVLRYGLDSDLSCKIAQLPLTGSMSIIFFLPLKVTQNLTLIEESLTSEFIHDIDRELKTVQAVLTVPKLKLSYEGEVTKSLQEMKLQSLFDSPDFSKITGKPIKLTQVEHRAGFEWNEDGAGTTPSPGLQPAHLTFPLDYHLNQPFIFVLRDTDTGALLFIGKILDPRGP
modifications: biotin (sulfo-NHS-SS-biotin; sites not stated)
With B1 the binding [3] was “binds” and the binding [4] was “binds”.

B2: Pigment Epithelium Derived Factor (PEDF), untagged (ligand, UniProt P36955 20-418)
chain: QNPASPPEEGSPDPDSTGALVEEEDPFFKVPVNKLAAAVSNFGYDLYRVRSSTSPTTNVLLSPLSVATALSALSLGAEQRTESIIHRALYYDLISSPDIHGTYKELLDTVTAPQKNLKSASRIVFEKKLRIKSSFVAPLEKSYGTRPRVLTGNPRLDLQEINNWVQAQMKGKLARSTKEIPDEISILLLGVAHFKGQWVTKFDSRKTSLEDFYLDEERTVRVPMMSDPKAVLRYGLDSDLSCKIAQLPLTGSMSIIFFLPLKVTQNLTLIEESLTSEFIHDIDRELKTVQAVLTVPKLKLSYEGEVTKSLQEMKLQSLFDSPDFSKITGKPIKLTQVEHRAGFEWNEDGAGTTPSPGLQPAHLTFPLDYHLNQPFIFVLRDTDTGALLFIGKILDPRGP
In the case of B2, the binding [5] is reported as “binds”, the binding [6] is reported as “binds” and the binding [7] is reported as “binds”.
